Taken from: PubChem BioAssay AID1224828 (NIAID, 2016)

Aim: 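Knock-downs that increase or decrease LPS-induced p65 nuclear translocation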 (primary screen)
Cell system: mouse RAW264.7 G9 macrophage reporter cells (GFP-p65, Tnf promoter-mCherry)
Knock-down reagent: siRNA pool against mouse genes, 100 nM
Timing: 2 days siRNA transfection, then 40 min LPS before fixation
Treatment: LPS (Salmonella minnesota R595) at 10 ng/ml
Measurement: 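Imaged p65 nuclear translocation ratio, normalised to the plate median, converted to robust z-scores and averaged across two replicates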
Reading the numbers: p65 translocation robust z-score: higher = more nuclear NF-kappaB p65 after LPS than the plate median; nuclear/cytoplasmic p65 ratio: higher = more nuclear NF-kappaB p65
Call rule: 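Called active when z exceeds 3.3 or falls under -1.56 (median of Tlr4 controls), giving activity score of at least 50; no calls for control wells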
Meaning of the calls: active = hit (p65 shift raised or lowered); inactive = no clear change
This is an unselected part of about 17,000 reagents tested. 762 of all reagents (4.5%) count as active. 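Active calls include both raised and lowered p65 entry, mostly lowered; wells with fewer than 50 cells lack a z-score.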 Raw values are not corrected between plates.

Gene	p65 translocation robust z-score	nuclear/cytoplasmic p65 ratio, rep 1	nuclear/cytoplasmic p65 ratio, rep 2	low cell count flag	Outcome
Or12j5 (olfactory receptor family 12 subfamily J member 5)	-0.34	1.4	1.23	enough cells to score	inactive
Tmem132a (transmembrane protein 132A)	3.65	2.05	1.94	enough cells to score	active
Trpc6	-0.57	1.45	1.45	enough cells to score	inactive
Adamts8 (ADAM metallopeptidase with thrombospondin type 1 motif 8)	-0.5	1.56	1.53	enough cells to score	inactive
Hhip (Hedgehog-interacting protein)	1.77	1.98	1.74	enough cells to score	inactive
Mbd6 (methyl-CpG binding domain protein 6)	-0.74	1.48	1.64	enough cells to score	inactive
Rab21 (RAB21, member RAS oncogene family)	-1.03	1.39	1.35	enough cells to score	inactive
Mrgprb8 (MAS-related GPR, member B8)	1.47	2.06	1.78	enough cells to score	inactive
Poglut1 (protein O-glucosyltransferase 1)	-2.07	1.12	1.29	enough cells to score	active
Mrpl22 (mitochondrial ribosomal protein L22)	0.01	1.84	1.55	enough cells to score	inactive
Fstl5 (follistatin-like 5)	2.83	2.01	1.85	enough cells to score	inactive
Slc2a10		1.37	1.21	fewer than 50 cells per well; well left out of scoring	inactive
Folr2 (folate receptor beta)	1.48	1.72	1.47	enough cells to score	inactive
Igbp1b (immunoglobulin (CD79A) binding protein 1b)	2.36	1.91	1.72	enough cells to score	inactive
Plpp3 (phospholipid phosphatase 3)	-0.4	1.4	1.39	enough cells to score	inactive
4930512M02Rik (RIKEN cDNA 4930512M02 gene)		1.28	1.33	fewer than 50 cells per well; well left out of scoring	inactive
Tomm34 (translocase of outer mitochondrial membrane 34)		1.26	1.2	fewer than 50 cells per well; well left out of scoring	inactive
Otud6b (OTU domain containing 6B)	0.68	1.49	1.79	enough cells to score	inactive
Hsf1 (heat shock factor 1)	1.16	1.58	1.51	enough cells to score	inactive
Top1mt (DNA topoisomerase 1, mitochondrial)	0.35	1.65	1.68	enough cells to score	inactive
Flcn (folliculin)	-0.17	1.62	1.55	enough cells to score	inactive
Rnf186 (ring finger protein 186)	-0.81	1.31	1.44	enough cells to score	inactive
Slc26a2	0.37	1.59	1.55	enough cells to score	inactive
Acad8 (acyl-Coenzyme A dehydrogenase family, member 8)	0.65	1.72	1.77	enough cells to score	inactive
Necap1 (NECAP endocytosis associated 1)	0.06	1.38	1.45	enough cells to score	inactive
Pign (phosphatidylinositol glycan anchor biosynthesis, class N)	0.47	1.53	1.3	enough cells to score	inactive
Vstm2a (V-set and transmembrane domain containing 2A)	-1.54	1.38	1.55	enough cells to score	inactive
Stt3a		1.35	1.1	fewer than 50 cells per well; well left out of scoring	inactive
Extl2 (exostosin-like glycosyltransferase 2)	0.69	1.6	1.42	enough cells to score	inactive
Stxbp1 (syntaxin binding protein 1)	0.61	1.49	1.31	enough cells to score	inactive
Tas2r135 (taste receptor, type 2, member 135)	-0.83	1.31	1.55	enough cells to score	inactive
Spire2 (spire type actin nucleation factor 2)	-0.53	1.32	1.2	enough cells to score	inactive
Rps6kb2 (ribosomal protein S6 kinase B2)	-0.33	1.56	1.39	enough cells to score	inactive
Clec2g (C-type lectin domain family 2, member g)	0.99	1.61	1.52	enough cells to score	inactive
Slc30a1		1.27	1.17	fewer than 50 cells per well; well left out of scoring	inactive
Gkn2 (gastrokine 2)		1.18	1.22	fewer than 50 cells per well; well left out of scoring	inactive
A630038E17Rik (RIKEN cDNA A630038E17 gene)	3.3	1.5	1.99	enough cells to score	inactive

Sorted by “p65 translocation robust z-score” (ascending): 5 of the entries above
Gene	p65 translocation robust z-score	nuclear/cytoplasmic p65 ratio, rep 1	nuclear/cytoplasmic p65 ratio, rep 2	low cell count flag	Outcome
Poglut1 (protein O-glucosyltransferase 1)	-2.07	1.12	1.29	enough cells to score	active
Rab21 (RAB21, member RAS oncogene family)	-1.03	1.39	1.35	enough cells to score	inactive
Mbd6 (methyl-CpG binding domain protein 6)	-0.74	1.48	1.64	enough cells to score	inactive
Mrpl22 (mitochondrial ribosomal protein L22)	0.01	1.84	1.55	enough cells to score	inactive
Mrgprb8 (MAS-related GPR, member B8)	1.47	2.06	1.78	enough cells to score	inactive

Next reagents:
Gene	p65 translocation robust z-score	nuclear/cytoplasmic p65 ratio, rep 1	nuclear/cytoplasmic p65 ratio, rep 2	low cell count flag	Outcome
Arf2 (ARF GTPase 2)	-0.17	1.48	1.59	enough cells to score	inactive
2210409E12Rik (RIKEN cDNA 2210409E12 gene)	0.26	1.39	1.4	enough cells to score	inactive
Teddm3 (transmembrane epididymal family member 3)		3.97	1.32	fewer than 50 cells per well; well left out of scoring	inactive
Nudt4 (nudix hydrolase 4)	-0.87	1.36	1.28	enough cells to score	inactive
St13 (suppression of tumorigenicity 13)	-0.21	1.54	1.51	enough cells to score	inactive
Muc1 (mucin 1, transmembrane)	0.21	1.81	1.63	enough cells to score	inactive
Col10a1 (collagen, type X, alpha 1)	0.53	1.56	1.44	enough cells to score	inactive
Itfg2 (integrin alpha FG-GAP repeat containing 2)	-0.14	1.35	1.48	enough cells to score	inactive
Irx2 (Iroquois homeobox 2)	-0.15	1.54	1.4	enough cells to score	inactive
Zfp68 (zinc finger protein 68)		1.54	1.12	fewer than 50 cells per well; well left out of scoring	inactive
Atf6b (activating transcription factor 6 beta)	0.53	1.62	1.38	enough cells to score	inactive
Mcf2 (mcf.2 transforming sequence)	0.16	1.5	1.33	enough cells to score	inactive
Kif6 (kinesin family member 6)	0.83	1.74	1.48	enough cells to score	inactive
Znf41-ps (ZNF41, pseudogene)		1.44	1.62	fewer than 50 cells per well; well left out of scoring	inactive
Serac1 (serine active site containing 1)	0.23	1.53	1.2	enough cells to score	inactive
Wbp11 (WW domain binding protein 11)	1.57	1.54	1.4	enough cells to score	inactive
4833408A19Rik (RIKEN cDNA 4833408A19 gene)		1.57	1.19	fewer than 50 cells per well; well left out of scoring	inactive
Ppcdc (phosphopantothenoylcysteine decarboxylase)	0.31	1.46	1.59	enough cells to score	inactive
Egln3 (egl-9 family hypoxia-inducible factor 3)	0.35	1.58	1.35	enough cells to score	inactive
Vcp (valosin containing protein)		1.34	1.02	fewer than 50 cells per well; well left out of scoring	inactive
Stat5b (signal transducer and activator of transcription 5B)	1.05	1.57	1.84	enough cells to score	inactive
Mrgpra4 (MAS-related GPR, member A4)	1.73	2.01	1.9	enough cells to score	inactive
